Test results from PubChem BioAssay AID504648 (National Center for Advancing Translational Sciences (NCATS), 2011).
Several values for one entry are separate records, joined by “and”; a condition that tells them apart may be missing. Equal entries are not always repeated. Hit rate of the full screen: of about 390,000 compounds, about 610 (0.16%) were called active. This list was built around the results that the source calls inconclusive (neither active nor inactive); the mix of calls is not that of the screen. The call rests on the fitted dose curve; in most records, active means well fitted inhibition curve with a large enough effect; inconclusive means small, poorly fitted or top-dose-only effect, or effect the other way, or another doubt; inactive means no such curve, though single readings can be large or run the other way. Where the call is inconclusive, the potency comes from a doubtful curve fit.

experiment: Nrf2 qHTS screen for inhibitors: counterscreen for cytotoxicity; conditions: A549 ARE-Fluc cells, CellTiter-Fluor viability, 18-24 h; series mostly up to 46 µM
How it was run: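 Cytotoxicity counterscreen: CellTiter-Fluor fluorescence was measured in A549 ARE_Fluc cells after 18-24 h of compound exposure in a concentration series. The subsequent BugLite luminescent read reports ARE-luciferase activity.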
Potency means the concentration at half of the fitted maximal effect.

| Compound | Potency |
| --- | --- |
| COc1cccc(CN2C(=O)c3ccccc3NC2c2ccc(OC)c(COc3ccc(NC(C)=O)cc3)c2)c1 (configuration not stated) | inconclusive: 13 µM [falling, partial curve, poor fit] |
| O=C(CSc1nc2c([nH]c3ccccc32)c(=O)n1-c1ccccc1)Nc1ccc(Cl)c(Cl)c1 | inactive |
| O=C(CSc1c2c(nc3cc(Cl)ccc13)CCCC2)N1CCN(c2ccccc2F)CC1 | inconclusive: 29.1 µM [falling, single point] |
| CC(=O)Nc1ccc(S(=O)(=O)Oc2ccc(C(=S)N3CCCCC3)cc2)cc1 | inactive |
| CC1(C)Cc2c(sc3[nH]c(=S)n(Cc4ccccc4)c(=O)c23)CO1 | inconclusive: 20.6 µM [falling, partial curve, poor fit] |
| N#Cc1ccccc1NC(=O)C(=O)NCCc1csc(-c2ccc(F)cc2)n1 | inactive |
| COc1ccc(CC(=O)Nc2nc(-c3ccc(OC)c(OC)c3)cs2)cc1OC | inconclusive: 32.6 µM [falling, partial curve, poor fit] |
| O=C(CCC(=O)N(CC(=O)NC1CCCCC1)Cc1cccs1)Nc1ccccn1 | inconclusive: 16.4 µM [activator, partial curve, poor fit] |
| O=C(c1ccc(Br)c([N+](=O)[O-])c1)N1CCN(Cc2ccccc2)CC1 | inactive |
| CN1c2ccccc2C(O)=C(C(=S)Nc2ccc(Cl)cc2)S1(=O)=O | inconclusive: 29.1 µM [falling, single point] |
| O=C(NCC1OCCc2ccccc21)c1ccco1 (configuration not stated) | inactive |
| NC(=O)CCCn1c(C(=O)c2cc(Cl)c(N)c(Cl)c2)c2ccc([N+](=O)[O-])cc2[n+]1[O-] | inconclusive: 29.1 µM [falling, single point] |
| COc1cc2c(cc1NC(=O)COC(=O)[C@@H](NS(=O)(=O)c1cccc(Cl)c1)C(C)C)oc1ccccc12 | inactive |
| O=C1CC(N2CCc3ccccc32)C(=O)N1c1ccc(F)cc1 (configuration not stated) | inactive |
| CCCCOc1ccc(C(=O)Nc2ccc(N3CCN(C)CC3)cc2)cc1 | inconclusive: 23.1 µM [activator, partial curve, poor fit] |
| O=C(Nc1ccc(Cl)cc1)/C(=C/c1cccc(O)c1)c1nc2ccccc2s1 | inconclusive: 23.1 µM [falling, single point] |
| CCN(Cc1ccccc1)S(=O)(=O)c1ccc(C(=O)N(CCCN(C)C)c2nc3c(F)cccc3s2)cc1 | inconclusive: 18.4 µM [falling, single point] |
| CC(=O)N1c2ccc(S(=O)(=O)NCCc3ccc(Cl)cc3)cc2CC1C (configuration not stated) | inactive |
| Cc1noc(C)c1S(=O)(=O)N1CCN(C(c2ccccc2)c2ccc(Cl)cc2)CC1 (configuration not stated) | inconclusive: 16.4 µM [activator, partial curve, poor fit] |
| Cc1ccc(-n2nc3c(N4CCC(C(=O)NC(C)c5ccccc5)CC4)nnc(C)c3c2C)cc1 (configuration not stated) | inconclusive: 23.1 µM [falling, partial curve, poor fit] |
| CSc1nc(NCC(C)C)nc(N2CCOCC2)n1 | inconclusive: 11.6 µM [activator, partial curve, poor fit] |

Part of the list above in order of length of the SMILES, ascending.

| Compound | Potency |
| --- | --- |
| O=C(NCC1OCCc2ccccc21)c1ccco1 (configuration not stated) | inactive |
| CSc1nc(NCC(C)C)nc(N2CCOCC2)n1 | inconclusive: 11.6 µM [activator, partial curve, poor fit] |
| O=C1CC(N2CCc3ccccc32)C(=O)N1c1ccc(F)cc1 (configuration not stated) | inactive |
| CN1c2ccccc2C(O)=C(C(=S)Nc2ccc(Cl)cc2)S1(=O)=O | inconclusive: 29.1 µM [falling, single point] |
| CC(=O)N1c2ccc(S(=O)(=O)NCCc3ccc(Cl)cc3)cc2CC1C (configuration not stated) | inactive |
| CC(=O)Nc1ccc(S(=O)(=O)Oc2ccc(C(=S)N3CCCCC3)cc2)cc1 | inactive |
| O=C(CSc1c2c(nc3cc(Cl)ccc13)CCCC2)N1CCN(c2ccccc2F)CC1 | inconclusive: 29.1 µM [falling, single point] |
| O=C(CSc1nc2c([nH]c3ccccc32)c(=O)n1-c1ccccc1)Nc1ccc(Cl)c(Cl)c1 | inactive |
| COc1cccc(CN2C(=O)c3ccccc3NC2c2ccc(OC)c(COc3ccc(NC(C)=O)cc3)c2)c1 (configuration not stated) | inconclusive: 13 µM [falling, partial curve, poor fit] |
| CCN(Cc1ccccc1)S(=O)(=O)c1ccc(C(=O)N(CCCN(C)C)c2nc3c(F)cccc3s2)cc1 | inconclusive: 18.4 µM [falling, single point] |

Additional structures:

| Compound | Potency |
| --- | --- |
| Fc1ccc(N2CCN(c3ncnc4c3nc3n4CCCCC3)CC2)cc1 | inactive |
| CCCCC(=O)NC(c1cccc([N+](=O)[O-])c1)c1ccc2cccnc2c1O (configuration not stated) | inactive |
| O=C(NCCc1csc(-c2ccc(F)cc2)n1)c1cccs1 | inconclusive: 23.1 µM [activator, partial curve, poor fit] |
| O=C(NN1C(=O)/C(=C/c2ccc(O)cc2)SC1=S)c1cccc(O)c1 | inconclusive: 16.4 µM [falling, partial curve, poor fit] |
| CCN(CC)CCNC(=S)Nc1ccc2nc(N3CCCC3)cc(C)c2c1 | active: 5.8 µM |
| COC(=O)C1CCN(c2ccc([N+](=O)[O-])cc2[N+](=O)[O-])CC1 | inconclusive: 20.6 µM [falling, single point] |
| COc1ccc(N2CCN(C(=O)CSc3nnc4nc(C)cc(C)n34)CC2)cc1 | inconclusive: 25.9 µM [activator, partial curve, poor fit] |
| COc1cc(/C=C2/SC(=S)N(Cc3ccccc3)C2=O)cc(OC)c1O | inconclusive: 20.6 µM [falling, partial curve, poor fit] |
| CCOC(=O)CSc1ccc2nnc(-c3ccccc3)n2n1 | inconclusive: 29.1 µM [falling, partial curve, poor fit] |
| COc1ccc2[nH]c(=O)c(CN(Cc3ccco3)C(c3nnnn3Cc3ccccc3)C(C)C)cc2c1 (configuration not stated) | inconclusive: 32.6 µM [falling, single point] |
| N#C/C(=N\Nc1ccc([N+](=O)[O-])cc1)C(N)=S | active: 18.4 µM |
| CCn1cc2nc(SCC(=O)Nc3ccccc3F)n(Cc3ccc(C)cc3)c(=O)c2n1 | inactive |
| O=C(NCC1CCCO1)c1ccccc1 (configuration not stated) | inactive |
| Cc1ccccc1Nc1cc2ccccc2c(=O)[nH]1 | active: 20.6 µM and active: 16.4 µM |
| FC(F)(F)c1ccc(Oc2ccc3c(C(F)(F)F)cc(C(F)(F)F)nc3n2)cc1 | inconclusive: 6.51 µM [activator, partial curve, poor fit] |
| Oc1ccc(-c2cn3cc(C(F)(F)F)ccc3n2)cc1 | inactive |
| CCN(CC)c1cc(C(F)(F)F)nc(-c2ccccn2)n1 | inconclusive: 23.1 µM [falling, partial curve, poor fit] |
| C#CC(=O)N(c1cc(OC)ccc1OC)C(C(=O)NC1CCCC1)c1cccs1 (configuration not stated) | inconclusive: 20.6 µM [falling, single point] |
| CC(C)NC(=O)N(C)C[C@H]1Oc2ccc(NC(=O)NC3CCCCC3)cc2C(=O)N([C@H](C)CO)C[C@@H]1C | inactive |
| O=C(CCS(=O)(=O)c1nc(-c2cccs2)cc(C(F)(F)F)n1)Nc1ccc(F)c(Cl)c1 | inconclusive: 29.1 µM [falling, single point] |
| Cc1onc(-c2ccccc2)c1C(=O)N1CCN(CCc2ccccc2)CC1 | inconclusive: 32.6 µM [activator, partial curve, poor fit] |
